Results from patent publication US20240100023A1, “Compositions and Methods For Treating Spinal Cord Injuries” (priority 2020, published 2024).
Some entries share one result that the patent states for a list of compounds.

Tested on: unanesthetized, freely moving rats
Assay: Diaphragm EMG and plethysmography in awake rats after C2Hx
Type: in vivo, Rat
Conditions: for Increase of peak diaphragm EMG ipsilateral to C2Hx compared to vehicle: 4-day time point, 5 mg/kg intravenous bolus, baseline breathing; for Increase of diaphragm EMG compared to vehicle during hypoxia-hypercapnia challenge: 10% O2, 7% CO2, follows the 4-day results; for Increase of diaphragm EMG compared to vehicle during hypoxia-hypercapnia challenge / Increase of ipsi-lesional diaphragm EMG compared to vehicle during hypoxia-hypercapnia challenge: 5 mg/kg i.v.; for Increase of ipsi-lesional diaphragm EMG compared to vehicle during hypoxia-hypercapnia challenge: follows the 14-day results
Description: Low dose ampakine treatment was evaluated in awake, freely moving subjects to determine whether this treatment would safely and effectively increase diaphragm activity impaired due to acute- or sub-acute cervical SCI. In a placebo-controlled experiment with freely-moving non-anesthetized rats, ventilation and metabolic rate (VCO2) were measured using whole body plethysmography and diaphragm EMG using in-dwelling muscle electrodes. Diaphragm electromyography (EMG) was recorded using chronic in-dwelling electrodes in unanesthetized, freely moving rats. A spinal hemilesion was induced at C2 (C2Hx), and rats were studied at 4- and 14-days post injury during quiet room air breathing and acute respiratory challenge accomplished by inspiring 10% O2, 7% CO2 gas mixture. At 4 and 14 days following C2 spinal hemisection injury (C2Hx), rats were given a single intravenous bolus of CX717 (5 mg/kg, n=8), CX1739 (5 mg/kg, n=8) or vehicle (2-hydroxypropyl-beta-cyclodextrin; HPCD; n=8) (FIG. 22). Hemisectional spinal surgery results in reduced diaphragm activity as measured by EMG and plethysmography (FIG. 23).

| Structure (SMILES) | Increase of peak diaphragm EMG ipsilateral to C2Hx compared to vehicle | Increase of diaphragm EMG compared to vehicle during hypoxia-hypercapnia challenge | Increase of ipsi-lesional diaphragm EMG compared to vehicle during hypoxia-hypercapnia challenge |
| --- | --- | --- | --- |
| O=C(c1ccc2nonc2c1)N1CCOCC1 [CX717, 1-(benzofurazan-5-ylcarbonyl)morpholine] | 40-60% | 65-75% | 25-35% |
| CN(C(=O)c1ccc2nonc2c1)C1CCOCC1 [CX1739, N-Methyl-N-tetrahydro-2H-pyran-4-yl-[2,1,3]-benzoxadiazole-5-carboxamide] | 40-60% | 65-75% | 25-35% |
